From patent US20020102606A1
These are yes or no findings as the source states them, for the method shown. Some binding calls cover weakened binding; strength is not graded here.

By UniProt entry, the sequences of proteins in these tests, tags left out. Where a name states a change or a piece, a line headed by the entry shows the natural chain unless it says otherwise. Chains listed by the source or under a name are the forms on record and can include a tag or linker. Residues count along the entry.
PRAK NUC 201-1104 K51M, T182D (bait) (Q8IW41, form named): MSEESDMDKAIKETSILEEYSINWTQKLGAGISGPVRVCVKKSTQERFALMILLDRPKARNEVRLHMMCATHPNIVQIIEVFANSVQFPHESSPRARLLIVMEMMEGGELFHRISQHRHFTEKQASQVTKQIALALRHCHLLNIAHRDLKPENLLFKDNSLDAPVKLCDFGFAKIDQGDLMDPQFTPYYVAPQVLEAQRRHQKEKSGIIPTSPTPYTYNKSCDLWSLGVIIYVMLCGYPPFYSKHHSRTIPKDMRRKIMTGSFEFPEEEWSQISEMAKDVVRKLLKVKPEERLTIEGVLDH
UniProt Q96AA8: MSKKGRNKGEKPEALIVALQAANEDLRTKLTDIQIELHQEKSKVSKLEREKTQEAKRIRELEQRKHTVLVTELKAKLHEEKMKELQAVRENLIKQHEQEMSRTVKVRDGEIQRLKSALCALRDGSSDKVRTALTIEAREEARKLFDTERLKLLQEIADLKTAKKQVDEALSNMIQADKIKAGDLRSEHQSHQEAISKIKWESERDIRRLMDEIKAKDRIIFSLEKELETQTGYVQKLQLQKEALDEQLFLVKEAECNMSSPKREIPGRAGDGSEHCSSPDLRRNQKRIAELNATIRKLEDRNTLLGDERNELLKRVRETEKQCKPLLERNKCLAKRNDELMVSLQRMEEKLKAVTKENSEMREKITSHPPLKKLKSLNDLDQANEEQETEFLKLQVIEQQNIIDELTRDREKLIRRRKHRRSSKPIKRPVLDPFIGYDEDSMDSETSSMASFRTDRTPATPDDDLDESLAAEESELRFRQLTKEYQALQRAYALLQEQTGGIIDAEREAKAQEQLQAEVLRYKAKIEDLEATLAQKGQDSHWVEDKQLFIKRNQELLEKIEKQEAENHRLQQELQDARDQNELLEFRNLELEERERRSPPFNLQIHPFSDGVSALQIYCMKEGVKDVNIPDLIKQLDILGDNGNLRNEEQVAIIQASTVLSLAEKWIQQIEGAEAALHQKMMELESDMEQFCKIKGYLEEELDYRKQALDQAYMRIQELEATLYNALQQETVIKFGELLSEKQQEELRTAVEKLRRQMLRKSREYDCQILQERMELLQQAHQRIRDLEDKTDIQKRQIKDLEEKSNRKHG
UniProt Q14203, residues 771-999: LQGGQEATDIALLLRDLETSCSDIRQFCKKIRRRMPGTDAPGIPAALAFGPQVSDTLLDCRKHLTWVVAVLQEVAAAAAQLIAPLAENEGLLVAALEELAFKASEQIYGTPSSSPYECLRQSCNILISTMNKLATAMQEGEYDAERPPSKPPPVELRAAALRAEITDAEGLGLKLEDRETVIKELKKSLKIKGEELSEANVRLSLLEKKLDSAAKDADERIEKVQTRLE
UniProt O14964: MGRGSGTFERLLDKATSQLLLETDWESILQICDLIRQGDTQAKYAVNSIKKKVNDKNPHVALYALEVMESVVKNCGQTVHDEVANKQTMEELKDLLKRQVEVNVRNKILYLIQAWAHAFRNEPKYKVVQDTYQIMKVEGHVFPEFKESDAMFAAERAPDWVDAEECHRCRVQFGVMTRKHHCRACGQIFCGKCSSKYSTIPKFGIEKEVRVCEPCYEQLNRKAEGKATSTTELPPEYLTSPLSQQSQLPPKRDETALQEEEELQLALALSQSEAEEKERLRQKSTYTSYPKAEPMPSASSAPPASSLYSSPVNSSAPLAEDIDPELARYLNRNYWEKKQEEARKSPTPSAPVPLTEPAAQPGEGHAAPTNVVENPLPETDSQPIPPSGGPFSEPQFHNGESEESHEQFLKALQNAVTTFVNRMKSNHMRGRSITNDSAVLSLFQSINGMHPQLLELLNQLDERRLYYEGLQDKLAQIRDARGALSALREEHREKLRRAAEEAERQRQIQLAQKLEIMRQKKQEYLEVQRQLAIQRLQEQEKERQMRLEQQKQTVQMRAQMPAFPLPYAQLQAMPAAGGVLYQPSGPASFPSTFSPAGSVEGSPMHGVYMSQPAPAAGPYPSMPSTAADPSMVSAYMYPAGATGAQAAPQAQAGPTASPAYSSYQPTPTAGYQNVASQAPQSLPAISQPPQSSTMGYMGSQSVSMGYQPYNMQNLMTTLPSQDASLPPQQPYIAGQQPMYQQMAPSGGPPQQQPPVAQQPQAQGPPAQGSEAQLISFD
UniProt O60784, residues 236-492: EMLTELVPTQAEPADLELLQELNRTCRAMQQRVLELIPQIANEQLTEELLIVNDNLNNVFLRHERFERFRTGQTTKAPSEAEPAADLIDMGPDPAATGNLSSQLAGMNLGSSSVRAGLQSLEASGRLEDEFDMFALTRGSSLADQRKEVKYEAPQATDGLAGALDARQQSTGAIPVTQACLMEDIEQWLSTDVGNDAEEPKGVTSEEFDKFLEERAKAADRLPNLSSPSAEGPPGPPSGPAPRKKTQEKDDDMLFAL
UniProt Q9Y5Q3, residues 236-323: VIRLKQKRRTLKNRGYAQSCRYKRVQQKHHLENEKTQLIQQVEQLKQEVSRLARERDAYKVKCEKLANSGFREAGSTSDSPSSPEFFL
UniProt P62258: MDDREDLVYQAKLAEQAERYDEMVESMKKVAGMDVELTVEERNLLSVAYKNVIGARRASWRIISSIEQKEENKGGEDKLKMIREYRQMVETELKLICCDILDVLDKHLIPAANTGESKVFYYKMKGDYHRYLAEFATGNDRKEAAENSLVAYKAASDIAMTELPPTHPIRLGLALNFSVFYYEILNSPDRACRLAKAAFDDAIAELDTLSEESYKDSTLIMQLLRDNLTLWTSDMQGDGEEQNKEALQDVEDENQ
UniProt P04792, residues 73-205: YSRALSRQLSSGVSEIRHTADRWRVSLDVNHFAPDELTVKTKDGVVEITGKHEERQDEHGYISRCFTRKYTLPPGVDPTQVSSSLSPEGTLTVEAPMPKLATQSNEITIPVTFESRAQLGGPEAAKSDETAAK
UniProt P61244: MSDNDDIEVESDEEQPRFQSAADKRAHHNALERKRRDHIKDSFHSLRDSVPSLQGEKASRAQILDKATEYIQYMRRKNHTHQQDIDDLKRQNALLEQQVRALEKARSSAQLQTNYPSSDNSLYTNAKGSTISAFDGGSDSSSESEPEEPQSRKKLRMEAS

Key:
[1] = molecular target: PRAK NUC 201-1104 K51M, T182D (bait) (UniProt Q8IW41); test: yeast two-hybrid; prey clone found with the bait of the row
[2] = molecular target: PRAK NUC 201-1104 K51M, T182D (bait) (UniProt Q8IW41); test: yeast two-hybrid
NMI protein = molecular target: T1, NMI protein (UniProt Q13287); test: yeast two-hybrid
T1 sequence (looked up): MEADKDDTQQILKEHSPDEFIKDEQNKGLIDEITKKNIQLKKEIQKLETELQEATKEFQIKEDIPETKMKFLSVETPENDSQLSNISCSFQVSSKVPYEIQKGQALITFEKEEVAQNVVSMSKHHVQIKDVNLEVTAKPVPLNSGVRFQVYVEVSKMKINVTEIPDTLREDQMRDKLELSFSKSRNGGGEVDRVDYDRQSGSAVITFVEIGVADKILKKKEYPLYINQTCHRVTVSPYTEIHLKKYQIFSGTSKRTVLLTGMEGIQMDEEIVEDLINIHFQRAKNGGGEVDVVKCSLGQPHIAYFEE

[3] = molecular target: MAPKAP-K3 NUC 433-1003 (bait) (UniProt Q16644); test: yeast two-hybrid; prey clone found with the bait of the row
[4] = molecular target: MAPKAP-K3 NUC 433-1003 (bait) (UniProt Q16644); test: yeast two-hybrid
[5] = molecular target: KIAA0555 (protein of interest in a two-hybrid search, construct not stated) (UniProt Q96AA8); test: yeast two-hybrid
[6] = molecular target: T2, MAPKAP-K3 NUC 742-1003 (bait) (UniProt Q16644); test: yeast two-hybrid; prey clone found with the bait of the row
T2 sequence (looked up): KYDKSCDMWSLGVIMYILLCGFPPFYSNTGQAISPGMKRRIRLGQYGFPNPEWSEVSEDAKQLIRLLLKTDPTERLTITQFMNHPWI

[7] = molecular target: T2, MAPKAP-K3 NUC 742-1003 (bait); test: yeast two-hybrid

Substance	binding [3]	binding [4]	other results
ABP620 NUC 11355-12486 (prey) (from UniProt Q9UPN3 3719-4095)	–	–	binding [1]: binds; binding [2]: binds
Dynactin amino acids 771-999 (prey) (from UniProt Q14203 771-999)	–	–	binding [1]: binds; binding [2]: binds
HRS (construct not stated) (from UniProt O14964 1-777)	–	–	binding (NMI protein): binds
TOM1 NUC 751-1522 (prey) (from UniProt O60784 236-492)	binds	binds	–
KRML NUC 781-1045 (prey) (from UniProt Q9Y5Q3 236-323)	binds	binds	–
Hepatocyte Growth Factor-Regulated Tyrosine Kinase (HRS) NUC 1521-2073 (prey) (from UniProt O14964 482-665)	binds	binds	–
14-3-3 epsilon signal transduction protein (from UniProt P62258 1-255)	–	–	binding [5]: binds
HSP27 amino acids 73-206 (prey) (from UniProt P04792 73-205)	–	–	binding [6]: binds; binding [7]: binds
MAX amino acids 45-149 (prey) (from UniProt P61244 45-149)	binds	binds	–
